Data taken from publication PMC11215771.
No constants are given. Whether binding was seen depends on the method and setting. In cells and extracts the contact can be indirect. Some results given as binding are weak or reduced against the parent protein; the word gives no strength. Sequences can lack the tags named with a protein.

Biological target: human BACE1 (β-site of APP cleaving enzyme 1), wild type, untagged, expressed in HEK293T cells (human), P56817
Conditions: remark: other sources report otherwise

binding: binds
B1: human BACE1 (β-site of APP cleaving enzyme 1), wild type, untagged, expressed in HEK293T cells, P56817-1 46-501 (enzyme)
chain: ETDEEPEEPGRRGSFVEMVDNLRGKSGQGYYVEMTVGSPPQTLNILVDTGSSNFAVGAAPHPFLHRYYQRQLSSTYRDLRKGVYVPYTQGKWEGELGTDLVSIPHGPNVTVRANIAAITESDKFFINGSNWEGILGLAYAEIARPDDSLEPFFDSLVKQTHVPNLFSLQLCGAGFPLNQSEVLASVGGSMIIGGIDHSLYTGSLWYTPIRREWYYEVIIVRVEINGQDLKMDCKEYNYDKSIVDSGTTNLRLPKKVFEAAVKSIKAASSTEKFPDGFWLGEQLVCWQAGTTPWNIFPVISLYLMGEVTNQSFRITILPQQYLRPVEDVATSQDDCYKFAISQSSTGTVMGAVIMEGFYVVFDRARKRIGFAVSACHVHDEFRTAAVEGPFVTLDMEDCGYNIPQTDESTLMTIAYVMAAICALFMLPLCLMVCQWRCLRCLRQQHDDFADDISLLK
